Results taken from publication PMC12848007.
No constants are given. Whether binding was seen depends on the method and setting. In cells and extracts the contact can be indirect. Some binding calls cover weakened binding; strength is not graded here.

Chains of the proteins cited; added tags and fusions are not shown.
UniProt Q13620: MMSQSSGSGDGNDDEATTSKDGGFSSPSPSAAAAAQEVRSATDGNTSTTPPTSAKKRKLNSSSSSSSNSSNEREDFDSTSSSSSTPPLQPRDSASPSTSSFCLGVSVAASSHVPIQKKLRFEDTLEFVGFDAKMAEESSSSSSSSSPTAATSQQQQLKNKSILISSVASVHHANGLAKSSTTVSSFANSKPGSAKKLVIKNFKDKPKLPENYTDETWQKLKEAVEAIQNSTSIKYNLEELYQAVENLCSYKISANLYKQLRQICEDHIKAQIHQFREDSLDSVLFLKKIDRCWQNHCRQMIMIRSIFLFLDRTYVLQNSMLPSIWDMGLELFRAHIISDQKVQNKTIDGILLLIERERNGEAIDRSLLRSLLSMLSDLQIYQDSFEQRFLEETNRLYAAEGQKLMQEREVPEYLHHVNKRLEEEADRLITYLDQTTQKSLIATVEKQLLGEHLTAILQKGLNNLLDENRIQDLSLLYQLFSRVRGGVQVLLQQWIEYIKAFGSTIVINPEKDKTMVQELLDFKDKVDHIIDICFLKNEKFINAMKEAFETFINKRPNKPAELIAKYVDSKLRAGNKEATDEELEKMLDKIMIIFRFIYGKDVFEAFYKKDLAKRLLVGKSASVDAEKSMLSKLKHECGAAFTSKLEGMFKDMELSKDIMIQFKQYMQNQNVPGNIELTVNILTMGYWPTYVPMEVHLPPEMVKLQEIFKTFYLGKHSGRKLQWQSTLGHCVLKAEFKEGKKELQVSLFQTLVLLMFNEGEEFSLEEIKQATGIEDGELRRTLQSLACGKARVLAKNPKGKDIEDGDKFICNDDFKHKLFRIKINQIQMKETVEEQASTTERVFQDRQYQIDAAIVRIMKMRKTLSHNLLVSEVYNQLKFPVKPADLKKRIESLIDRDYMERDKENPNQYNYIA
UniProt Q16531: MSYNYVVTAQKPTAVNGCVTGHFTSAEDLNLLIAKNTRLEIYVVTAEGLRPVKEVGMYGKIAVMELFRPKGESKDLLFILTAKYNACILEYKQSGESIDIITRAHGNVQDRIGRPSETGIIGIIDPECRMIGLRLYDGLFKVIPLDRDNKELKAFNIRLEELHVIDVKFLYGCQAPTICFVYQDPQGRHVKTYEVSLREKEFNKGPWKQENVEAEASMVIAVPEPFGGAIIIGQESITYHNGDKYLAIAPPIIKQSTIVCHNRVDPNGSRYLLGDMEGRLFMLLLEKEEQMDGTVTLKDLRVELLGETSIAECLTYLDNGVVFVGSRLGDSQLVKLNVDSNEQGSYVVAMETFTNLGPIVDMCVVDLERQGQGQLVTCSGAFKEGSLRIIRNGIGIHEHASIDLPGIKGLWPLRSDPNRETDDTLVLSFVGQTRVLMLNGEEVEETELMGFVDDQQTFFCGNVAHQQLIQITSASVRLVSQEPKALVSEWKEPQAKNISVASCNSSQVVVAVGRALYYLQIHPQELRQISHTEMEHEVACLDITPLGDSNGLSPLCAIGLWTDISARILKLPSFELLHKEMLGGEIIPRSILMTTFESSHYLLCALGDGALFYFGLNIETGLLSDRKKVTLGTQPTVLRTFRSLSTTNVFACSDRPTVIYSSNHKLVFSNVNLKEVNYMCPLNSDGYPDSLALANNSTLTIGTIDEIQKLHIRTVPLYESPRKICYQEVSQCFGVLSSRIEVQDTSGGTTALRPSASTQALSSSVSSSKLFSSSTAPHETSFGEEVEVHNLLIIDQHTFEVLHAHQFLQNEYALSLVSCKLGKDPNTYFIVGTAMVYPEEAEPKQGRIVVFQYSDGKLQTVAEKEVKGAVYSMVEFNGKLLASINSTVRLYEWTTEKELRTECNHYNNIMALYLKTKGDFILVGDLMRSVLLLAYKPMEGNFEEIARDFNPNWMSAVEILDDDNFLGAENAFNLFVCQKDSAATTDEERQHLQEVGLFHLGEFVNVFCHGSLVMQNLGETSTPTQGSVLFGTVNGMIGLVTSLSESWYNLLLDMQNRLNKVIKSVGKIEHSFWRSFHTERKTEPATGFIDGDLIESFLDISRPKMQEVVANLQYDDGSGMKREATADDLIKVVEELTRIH
UniProt Q9NZJ0: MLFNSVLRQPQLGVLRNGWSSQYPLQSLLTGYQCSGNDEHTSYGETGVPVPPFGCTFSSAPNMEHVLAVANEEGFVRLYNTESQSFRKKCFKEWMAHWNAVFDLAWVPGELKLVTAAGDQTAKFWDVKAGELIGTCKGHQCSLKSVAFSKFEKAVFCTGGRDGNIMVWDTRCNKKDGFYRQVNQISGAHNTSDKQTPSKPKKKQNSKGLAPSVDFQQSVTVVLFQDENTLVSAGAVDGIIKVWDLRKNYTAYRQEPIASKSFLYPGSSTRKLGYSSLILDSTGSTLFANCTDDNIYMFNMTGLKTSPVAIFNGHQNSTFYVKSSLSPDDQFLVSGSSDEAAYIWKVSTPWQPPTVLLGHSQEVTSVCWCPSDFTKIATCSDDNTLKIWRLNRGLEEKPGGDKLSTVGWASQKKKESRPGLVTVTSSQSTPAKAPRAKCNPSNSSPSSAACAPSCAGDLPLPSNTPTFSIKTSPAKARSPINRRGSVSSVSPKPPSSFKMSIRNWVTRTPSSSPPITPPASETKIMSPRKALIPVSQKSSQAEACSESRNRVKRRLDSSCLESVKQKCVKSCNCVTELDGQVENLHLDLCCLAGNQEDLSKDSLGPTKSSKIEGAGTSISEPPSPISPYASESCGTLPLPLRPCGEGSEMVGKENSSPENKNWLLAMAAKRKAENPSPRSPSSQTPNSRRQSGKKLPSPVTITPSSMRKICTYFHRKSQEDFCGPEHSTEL
UniProt P35637: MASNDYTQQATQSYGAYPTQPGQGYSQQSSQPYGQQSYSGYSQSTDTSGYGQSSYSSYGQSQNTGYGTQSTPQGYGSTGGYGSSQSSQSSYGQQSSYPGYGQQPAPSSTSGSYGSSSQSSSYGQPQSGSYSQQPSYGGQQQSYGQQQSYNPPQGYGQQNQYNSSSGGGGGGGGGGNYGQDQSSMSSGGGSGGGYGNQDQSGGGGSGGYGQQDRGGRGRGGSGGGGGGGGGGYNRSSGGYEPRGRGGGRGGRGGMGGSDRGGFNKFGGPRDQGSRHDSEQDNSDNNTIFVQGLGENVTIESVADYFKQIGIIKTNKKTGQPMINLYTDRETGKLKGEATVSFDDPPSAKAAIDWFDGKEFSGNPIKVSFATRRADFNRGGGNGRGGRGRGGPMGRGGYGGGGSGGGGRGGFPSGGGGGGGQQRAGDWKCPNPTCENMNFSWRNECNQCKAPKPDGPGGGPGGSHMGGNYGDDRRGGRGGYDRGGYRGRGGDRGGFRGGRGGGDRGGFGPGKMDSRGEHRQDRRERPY

Target: Flag-tagged CUL4B (human) (UniProt Q13620)
Test: co-IP; Flag-tagged CUL4B transfected into Huh7 cells; immunoprecipitation with anti-Flag M2 affinity resin, then western blotting

binding, binds:
DDB1 (from UniProt Q16531 1-1140), DTL (from UniProt Q9NZJ0 1-730), Fused in sarcoma (FUS) (from UniProt P35637 1-526)
